These are yes or no findings as the source states them, for the method shown. Binding seen in cells or lysates may run through a third protein. Some results given as binding are weak or reduced against the parent protein; the word gives no strength. Where a sequence is shown, tags or fusion partners need not be part of it.
Legend:
[1] = biological target: T1, GFP-tagged RQ4-2A (RECQL4 Ser89Ala/Ser251Ala) (human) (UniProt O94761); experiment: co-IP; GFP-TRAP beads on lysate (2 mg protein) of HEK293T cells expressing GFP-tagged RECQL4 or mutants, overnight at 4 °C; lysis buffer 2 (40 mM Tris-HCl pH 7.4, 100 mM NaCl, 2 mM MgCl2, 0.2% NP-40, 0.3% Triton) with Benzonase; cells irradiated with 10 Gy; asynchronous, or synchronised in G1 with aphidicolin and released 10 h for S/G2; Western blotting
T1 sequence: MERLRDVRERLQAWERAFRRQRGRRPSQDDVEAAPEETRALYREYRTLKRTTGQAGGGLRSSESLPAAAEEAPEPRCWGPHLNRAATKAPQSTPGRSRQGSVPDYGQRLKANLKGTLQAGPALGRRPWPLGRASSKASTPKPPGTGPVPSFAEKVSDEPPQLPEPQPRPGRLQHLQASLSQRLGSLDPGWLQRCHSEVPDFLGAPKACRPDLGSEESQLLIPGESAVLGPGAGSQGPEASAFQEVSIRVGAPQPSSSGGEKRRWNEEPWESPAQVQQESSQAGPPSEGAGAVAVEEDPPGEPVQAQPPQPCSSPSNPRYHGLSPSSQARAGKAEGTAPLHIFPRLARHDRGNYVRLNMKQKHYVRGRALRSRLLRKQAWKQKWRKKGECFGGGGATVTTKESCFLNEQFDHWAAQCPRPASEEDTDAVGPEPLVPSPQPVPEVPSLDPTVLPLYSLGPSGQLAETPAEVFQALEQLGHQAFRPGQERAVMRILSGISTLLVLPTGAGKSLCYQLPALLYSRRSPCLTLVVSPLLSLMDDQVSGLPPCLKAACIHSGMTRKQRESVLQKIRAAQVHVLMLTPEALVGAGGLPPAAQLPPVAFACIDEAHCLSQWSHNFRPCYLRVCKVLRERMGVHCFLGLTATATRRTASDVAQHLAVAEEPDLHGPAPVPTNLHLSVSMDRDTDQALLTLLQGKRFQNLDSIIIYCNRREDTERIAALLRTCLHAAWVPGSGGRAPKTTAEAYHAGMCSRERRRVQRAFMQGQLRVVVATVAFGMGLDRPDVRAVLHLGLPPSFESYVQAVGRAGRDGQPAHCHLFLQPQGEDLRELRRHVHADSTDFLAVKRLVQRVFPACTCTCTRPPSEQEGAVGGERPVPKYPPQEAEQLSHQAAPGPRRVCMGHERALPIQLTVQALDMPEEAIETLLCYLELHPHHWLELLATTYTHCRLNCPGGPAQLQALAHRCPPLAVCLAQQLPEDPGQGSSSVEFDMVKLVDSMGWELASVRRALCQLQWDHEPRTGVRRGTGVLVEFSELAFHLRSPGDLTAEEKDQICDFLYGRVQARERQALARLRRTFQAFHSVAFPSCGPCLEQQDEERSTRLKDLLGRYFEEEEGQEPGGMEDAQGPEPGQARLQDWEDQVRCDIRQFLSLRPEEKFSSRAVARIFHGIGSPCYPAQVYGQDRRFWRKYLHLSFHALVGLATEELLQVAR

Amino acid sequences for entries named in this document (tags omitted).
UniProt P12956: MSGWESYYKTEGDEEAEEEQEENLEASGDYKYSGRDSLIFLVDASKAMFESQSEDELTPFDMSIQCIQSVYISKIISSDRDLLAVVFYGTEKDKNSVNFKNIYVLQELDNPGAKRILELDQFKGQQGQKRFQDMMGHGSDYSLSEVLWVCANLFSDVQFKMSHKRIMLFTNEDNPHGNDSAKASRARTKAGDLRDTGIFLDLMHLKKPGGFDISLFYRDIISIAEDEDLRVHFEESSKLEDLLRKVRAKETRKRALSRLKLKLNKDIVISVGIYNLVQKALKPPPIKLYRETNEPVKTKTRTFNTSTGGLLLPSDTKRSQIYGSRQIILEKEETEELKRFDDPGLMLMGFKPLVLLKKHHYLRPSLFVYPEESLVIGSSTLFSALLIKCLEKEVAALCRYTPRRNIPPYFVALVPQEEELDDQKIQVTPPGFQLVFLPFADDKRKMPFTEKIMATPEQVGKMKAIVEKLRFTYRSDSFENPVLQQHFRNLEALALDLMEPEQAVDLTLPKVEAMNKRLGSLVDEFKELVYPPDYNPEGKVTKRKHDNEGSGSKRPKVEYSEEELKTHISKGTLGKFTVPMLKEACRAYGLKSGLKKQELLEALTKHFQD
UniProt Q16531: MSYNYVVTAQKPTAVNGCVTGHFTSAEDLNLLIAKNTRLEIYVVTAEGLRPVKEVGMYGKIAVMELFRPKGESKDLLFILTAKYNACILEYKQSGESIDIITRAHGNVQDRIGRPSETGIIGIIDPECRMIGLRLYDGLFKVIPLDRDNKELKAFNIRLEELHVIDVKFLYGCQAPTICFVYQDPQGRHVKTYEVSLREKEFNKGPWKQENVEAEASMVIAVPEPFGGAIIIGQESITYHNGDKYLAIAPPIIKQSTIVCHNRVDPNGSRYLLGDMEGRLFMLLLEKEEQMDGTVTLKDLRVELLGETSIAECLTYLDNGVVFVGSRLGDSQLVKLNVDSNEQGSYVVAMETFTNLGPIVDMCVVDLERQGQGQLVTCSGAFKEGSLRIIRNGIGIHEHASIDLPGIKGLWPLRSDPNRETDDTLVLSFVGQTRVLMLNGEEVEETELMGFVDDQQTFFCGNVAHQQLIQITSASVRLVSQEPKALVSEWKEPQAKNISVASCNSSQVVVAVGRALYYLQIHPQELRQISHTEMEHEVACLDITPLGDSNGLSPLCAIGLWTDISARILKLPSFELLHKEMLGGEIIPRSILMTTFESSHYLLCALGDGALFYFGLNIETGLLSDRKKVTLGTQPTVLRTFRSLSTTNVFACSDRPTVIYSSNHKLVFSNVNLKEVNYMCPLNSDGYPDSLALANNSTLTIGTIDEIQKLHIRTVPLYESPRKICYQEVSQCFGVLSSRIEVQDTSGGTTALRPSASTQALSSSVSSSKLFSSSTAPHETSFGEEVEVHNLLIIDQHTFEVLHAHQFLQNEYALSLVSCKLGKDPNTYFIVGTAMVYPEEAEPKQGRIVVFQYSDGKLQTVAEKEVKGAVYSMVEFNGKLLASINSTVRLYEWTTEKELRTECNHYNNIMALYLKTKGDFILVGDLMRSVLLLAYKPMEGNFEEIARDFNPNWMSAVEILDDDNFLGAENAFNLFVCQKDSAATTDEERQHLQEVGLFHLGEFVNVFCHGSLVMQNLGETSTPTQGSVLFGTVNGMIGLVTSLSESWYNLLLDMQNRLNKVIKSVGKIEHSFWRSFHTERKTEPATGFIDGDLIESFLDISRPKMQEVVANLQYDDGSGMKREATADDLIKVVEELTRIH

[2] = biological target: T2, 3×FLAG-tagged RQ4-2A (RECQL4 Ser89Ala/Ser251Ala) (human) (UniProt O94761); experiment: co-IP; M2 FLAG beads on lysate (2 mg protein) of HEK293T cells expressing 3×FLAG-tagged RECQL4, mutants or truncations, overnight at 4 °C; lysis buffer 2 with Benzonase; Western blotting of endogenous partners
T2 sequence: T1 sequence

[3] = biological target: T3, 3×FLAG-tagged RECQL4 N-terminal domain NT (1-427AA) with SV40 nuclear location signal (human) (UniProt O94761); experiment: as above
T3 sequence: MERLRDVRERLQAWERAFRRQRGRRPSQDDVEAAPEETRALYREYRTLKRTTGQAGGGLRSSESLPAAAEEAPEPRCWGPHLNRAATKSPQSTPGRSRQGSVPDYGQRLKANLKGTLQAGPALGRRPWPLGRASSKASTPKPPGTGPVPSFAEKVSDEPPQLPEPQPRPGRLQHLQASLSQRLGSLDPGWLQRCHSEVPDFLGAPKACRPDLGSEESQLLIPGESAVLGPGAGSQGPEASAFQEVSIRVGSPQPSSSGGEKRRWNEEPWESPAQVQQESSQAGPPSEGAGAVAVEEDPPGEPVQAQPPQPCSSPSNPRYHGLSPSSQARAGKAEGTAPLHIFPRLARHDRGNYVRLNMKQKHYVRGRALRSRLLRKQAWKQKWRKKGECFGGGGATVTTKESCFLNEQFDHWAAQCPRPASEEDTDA

| binding [1] | binding [2] | binding [3] | Substance |
| --- | --- | --- | --- |
| binds |  |  | Ku70 (from UniProt P12956 1-609) |
|  | binds | binds | DDB1 (from UniProt Q16531 1-1140) |

Reference: PMC5725494, “Cell cycle-dependent phosphorylation regulates RECQL4 pathway choice and ubiquitination in DNA double-strand break repair”
